PubChem BioAssay AID1259308, NCATS, 2017

Screen: 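Genes whose loss raises luciferase production in HEK293 cells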 (primary screen)
Cell system: human HEK293 embryonic kidney cells stably expressing firefly luciferase (HEK-CMV-Luc2-Hygro)
Reagent: single siRNA against human genes, 0.8 pmol siRNA per well
Time to read-out: 72 h
Detection: 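Luciferase light (ONE-Glo) measured on one replicate plate set and viability (CellTiter-Glo) on the other, scaled to a negative control siRNA, with robust z-scores and luciferase per cell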
Reading the numbers: total luciferase, z-score and total luciferase, % of control: higher = more reporter protein produced
Hit rule: 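Active when the median/MAD z-score for overall luciferase is greater than 3; a gene was taken forward for validation with new siRNAs if at least two of its three siRNAs passed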
Meaning of the calls: active = raised luciferase; inactive = no rise
The deposit covers about 59,000 reagents; shown is a part drawn at random. Over the whole deposit, about 1,510 (2.6%) got an active call. 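Calls use total luciferase alone and ignore viability, so some active siRNAs may act by altering cell number.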 Reagents against one gene are numbered here. Not all columns of the deposit are shown.

{"Gene": "KIAA2013", "reagent no.": 1, "total luciferase, z-score": -1.83, "total luciferase, % of control": 45.6, "Outcome": "inactive"}
{"Gene": "KIAA2013", "reagent no.": 2, "total luciferase, z-score": 0.618, "total luciferase, % of control": 94.2, "Outcome": "inactive"}
{"Gene": "KIAA2013", "reagent no.": 3, "total luciferase, z-score": -3.38, "total luciferase, % of control": 14.6, "Outcome": "inactive"}
{"Gene": "C17orf100 (chromosome 17 open reading frame 100)", "reagent no.": 1, "total luciferase, z-score": 0.0158, "total luciferase, % of control": 82.2, "Outcome": "inactive"}
{"Gene": "C17orf100 (chromosome 17 open reading frame 100)", "reagent no.": 2, "total luciferase, z-score": -1.24, "total luciferase, % of control": 57.3, "Outcome": "inactive"}
{"Gene": "C17orf100 (chromosome 17 open reading frame 100)", "reagent no.": 3, "total luciferase, z-score": 1.05, "total luciferase, % of control": 103, "Outcome": "inactive"}
{"Gene": "SMIM48 (small integral membrane protein 48)", "reagent no.": 1, "total luciferase, z-score": 2.17, "total luciferase, % of control": 125, "Outcome": "inactive"}
{"Gene": "SMIM48 (small integral membrane protein 48)", "reagent no.": 2, "total luciferase, z-score": -0.483, "total luciferase, % of control": 72.3, "Outcome": "inactive"}
{"Gene": "SMIM48 (small integral membrane protein 48)", "reagent no.": 3, "total luciferase, z-score": 1.09, "total luciferase, % of control": 104, "Outcome": "inactive"}
{"Gene": "SHMT1 (serine hydroxymethyltransferase 1)", "reagent no.": 1, "total luciferase, z-score": -0.565, "total luciferase, % of control": 70.6, "Outcome": "inactive"}
{"Gene": "SHMT1 (serine hydroxymethyltransferase 1)", "reagent no.": 2, "total luciferase, z-score": 1.36, "total luciferase, % of control": 109, "Outcome": "inactive"}
{"Gene": "SHMT1 (serine hydroxymethyltransferase 1)", "reagent no.": 3, "total luciferase, z-score": -0.382, "total luciferase, % of control": 74.3, "Outcome": "inactive"}
{"Gene": "CCNL1 (cyclin L1)", "reagent no.": 1, "total luciferase, z-score": 2.27, "total luciferase, % of control": 127, "Outcome": "inactive"}
{"Gene": "CCNL1 (cyclin L1)", "reagent no.": 2, "total luciferase, z-score": -1.01, "total luciferase, % of control": 61.8, "Outcome": "inactive"}
{"Gene": "CCNL1 (cyclin L1)", "reagent no.": 3, "total luciferase, z-score": -0.232, "total luciferase, % of control": 77.3, "Outcome": "inactive"}
{"Gene": "KIF20B (kinesin family member 20B)", "reagent no.": 1, "total luciferase, z-score": 0.234, "total luciferase, % of control": 86.5, "Outcome": "inactive"}
{"Gene": "KIF20B (kinesin family member 20B)", "reagent no.": 2, "total luciferase, z-score": -0.153, "total luciferase, % of control": 78.8, "Outcome": "inactive"}
{"Gene": "KIF20B (kinesin family member 20B)", "reagent no.": 3, "total luciferase, z-score": 3.85, "total luciferase, % of control": 159, "Outcome": "active"}

Active calls, of those listed so far:
{"Gene": "KIF20B (kinesin family member 20B)", "reagent no.": 3, "total luciferase, z-score": 3.85, "total luciferase, % of control": 159, "Outcome": "active"}

Additional records follow.
{"Gene": "GABBR2 (gamma-aminobutyric acid type B receptor subunit 2)", "reagent no.": 1, "total luciferase, z-score": -0.932, "total luciferase, % of control": 63.3, "Outcome": "inactive"}
{"Gene": "GABBR2 (gamma-aminobutyric acid type B receptor subunit 2)", "reagent no.": 2, "total luciferase, z-score": -0.174, "total luciferase, % of control": 78.4, "Outcome": "inactive"}
{"Gene": "GABBR2 (gamma-aminobutyric acid type B receptor subunit 2)", "reagent no.": 3, "total luciferase, z-score": 0.0512, "total luciferase, % of control": 82.9, "Outcome": "inactive"}
{"Gene": "SULT6B1 (sulfotransferase family 6B member 1)", "reagent no.": 1, "total luciferase, z-score": -1.42, "total luciferase, % of control": 53.6, "Outcome": "inactive"}
{"Gene": "SULT6B1 (sulfotransferase family 6B member 1)", "reagent no.": 2, "total luciferase, z-score": -0.139, "total luciferase, % of control": 79.1, "Outcome": "inactive"}
{"Gene": "SULT6B1 (sulfotransferase family 6B member 1)", "reagent no.": 3, "total luciferase, z-score": 1.53, "total luciferase, % of control": 112, "Outcome": "inactive"}
{"Gene": "TTC9 (tetratricopeptide repeat domain 9)", "reagent no.": 1, "total luciferase, z-score": 5.23, "total luciferase, % of control": 186, "Outcome": "active"}
{"Gene": "TTC9 (tetratricopeptide repeat domain 9)", "reagent no.": 2, "total luciferase, z-score": -0.296, "total luciferase, % of control": 76, "Outcome": "inactive"}
{"Gene": "TTC9 (tetratricopeptide repeat domain 9)", "reagent no.": 3, "total luciferase, z-score": -1.71, "total luciferase, % of control": 47.8, "Outcome": "inactive"}
{"Gene": "USP31 (ubiquitin specific peptidase 31)", "reagent no.": 1, "total luciferase, z-score": -1.13, "total luciferase, % of control": 59.5, "Outcome": "inactive"}
{"Gene": "USP31 (ubiquitin specific peptidase 31)", "reagent no.": 2, "total luciferase, z-score": -1.28, "total luciferase, % of control": 56.3, "Outcome": "inactive"}
{"Gene": "USP31 (ubiquitin specific peptidase 31)", "reagent no.": 3, "total luciferase, z-score": -0.59, "total luciferase, % of control": 70.1, "Outcome": "inactive"}
{"Gene": "MED12L (mediator complex subunit 12L)", "reagent no.": 1, "total luciferase, z-score": 1.23, "total luciferase, % of control": 106, "Outcome": "inactive"}
{"Gene": "MED12L (mediator complex subunit 12L)", "reagent no.": 2, "total luciferase, z-score": -0.077, "total luciferase, % of control": 80.4, "Outcome": "inactive"}
{"Gene": "MED12L (mediator complex subunit 12L)", "reagent no.": 3, "total luciferase, z-score": -0.496, "total luciferase, % of control": 72, "Outcome": "inactive"}
